Several values for one entry are separate records, joined by “and”; a condition that tells them apart may be missing. Equal values may be shown once. In all, about 320,000 compounds went through this assay and about 22,000 (6.9%) were called active. The shares of active, inactive and inconclusive entries below differ from those in the screen. Calls come from the whole dose curve; as a rule, active = well fitted inhibition curve with a large enough effect; inconclusive = small, poorly fitted or top-dose-only effect, or another doubt; inactive = no such curve, though single readings can be large or run the other way. Potencies beside an inconclusive call are fits to weak or partial responses and may not hold up.
Assay: Primary qHTS for delayed death inhibitors of the malarial parasite plastid, 96 hour incubation
Conditions: P. falciparum luciferase reporter growth; series mostly up to 28.7 µM
How it was run: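 Two-generation exposure (96 h) targets delayed-death phenotype. Reporter parasites carrying integrated firefly luciferase, in red cells at 2% hematocrit and 0.05% parasitemia final, kept at 37 C, 5% CO2; luminescence loss indicates inhibition.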
In the case of `Cc1c(NC(=O)OCCNC(=O)COc2c(Cl)cccc2Cl)sc(=S)n1C`, the Potency is reported as active: 9.28 µM.
With `CCOC(=O)Cn1c(C)nc2ccccc21` the Potency was inconclusive: 4.15 µM [inhibitor, full curve].
For `CCN1C(=O)C(=Cc2cccc(OC)c2Oc2ccc([N+](=O)[O-])cc2[N+](=O)[O-])SC1=S`, the Potency was active: 10.4 µM.
In the case of `O=C(NCCc1ccccc1F)N[C@@H](Cc1ccccc1)C(=O)O`, the Potency is reported as “inactive”.
With `CCn1c(Cc2ccccc2)nnc1SCC(=O)Nc1nnc(-c2ccccc2)s1` the Potency was “inactive”.
For `O=C(/C=C/c1ccc(Cl)cc1Cl)N1CCN(c2ccc([N+](=O)[O-])c(N3CCOCC3)c2)CC1`, the Potency was inconclusive: 10.4 µM [inhibitor, single point].
For `COc1ccc(Cl)cc1N/C(N)=N/c1nc(C)cc(=O)[nH]1`, the Potency was “inactive”.
For `CCOc1ccccc1NC(=O)CS(=O)(=O)c1cn(CC(=O)N2CCOCC2)c2ccccc12`, the Potency was inconclusive: 11.7 µM [inhibitor, single point].
For `Cc1ccc(N2C(=O)C(CN3CCOCC3)C2c2ccccc2)cc1` (centres undefined), the Potency was inconclusive: 3.7 µM [inhibitor, full curve, poor fit].
In the case of `COc1ccc2[nH]c(CN3CCN(C(C)C)C(CCO)C3)c(C)c2c1` (centres undefined), the Potency is reported as inconclusive: 10.4 µM [inhibitor, partial curve].
With `O=C(NCCS(=O)(=O)N1CCCC1)c1ccccc1` the Potency was “inactive”.
In the case of `COc1ccc(C(=O)CCC(=O)N2CCN(c3ccc([N+](=O)[O-])cc3)CC2)cc1`, the Potency is reported as inconclusive: 18.5 µM [inhibitor, single point].
With `Brc1ccc(OCCCOc2cccc3cccnc23)cc1` the Potency was “inactive”.
In the case of `CCN(CC)S(=O)(=O)c1cc(NC(=O)CCNC(=O)c2ccco2)ccc1C`, the Potency is reported as active: 6.57 µM.
For `COc1cccc(C(=O)NCCSCc2c(F)cccc2Cl)c1`, the Potency was inconclusive: 10.4 µM [inhibitor, single point].
In the case of `Cc1nn(C2CCS(=O)(=O)C2)c(C)c1CN(C)C(=O)c1cccc(Cl)c1` (centres undefined), the Potency is reported as “inactive”.
In the case of `CCC(=O)Nc1ccc(Cl)c(NC(=O)c2cccnc2)c1`, the Potency is reported as inconclusive: 14.7 µM [inhibitor, single point].
For `CC(C)(C)Cc1nnc(NS(=O)(=O)c2ccc(F)cc2)s1`, the Potency was inconclusive: 9.28 µM [inhibitor, partial curve, poor fit].
In the case of `Cc1c(C(=O)O)sc2nc(CSc3ncc(C(F)(F)F)cc3Cl)[nH]c(=O)c12`, the Potency is reported as “inactive”.
In the case of `COc1cc(/C=N/Nc2ccc(C)cc2)cc(Br)c1O`, the Potency is reported as inconclusive: 2.33 µM [inhibitor, partial curve, poor fit].
For `COc1ccc(-c2nc(C#N)c(NCc3ccc(C)cc3)o2)cc1OC`, the Potency was “inactive”.
In the case of `CN(Cc1ccccc1)S(=O)(=O)c1ccc2c(c1)CCC(=O)N2`, the Potency is reported as “inactive”.
With `CCOC(=O)N1CCN(c2c(N3CCN(c4cccc(C(F)(F)F)c4)CC3)c(=O)c2=O)CC1` the Potency was “inactive”.
With `Cc1ccc(NC(=O)COC(=O)CNC(=O)c2cccc([N+](=O)[O-])c2)cc1S(=O)(=O)N1CCCCCC1` the Potency was inconclusive: 8.28 µM [inhibitor, partial curve].
In the case of `O=[N+]([O-])c1ccccc1Nc1nc(-c2cccnc2)cs1`, the Potency is reported as inconclusive: 18.5 µM [inhibitor, single point].
For `Cc1ccc(C=Nc2ccccc2C(=O)Nc2ccccc2)cc1`, the Potency was “inactive”.
For `CCCCN(C)C(=O)c1cc2c(Cl)nc3ccccc3c2s1`, the Potency was “inactive”.
For `CCCCn1nc2cc(C(=O)N[C@H](C)C3CCCCC3)ccc2c1OCC`, the Potency was inconclusive: 11.7 µM [inhibitor, partial curve].
With `O=C(CCCN1C(=O)/C(=C/c2ccc(F)cc2)SC1=S)NC1CCS(=O)(=O)C1` (centres undefined) the Potency was active: 10.4 µM.
In the case of `CC1CCCC(C)N1/N=C/c1ccc(C#N)cc1` (centres undefined), the Potency is reported as “inactive”.
For `COc1ccc(NC(=O)c2nc3nc(C)cc(C(F)F)n3n2)cc1OC`, the Potency was inconclusive: 16.5 µM [inhibitor, single point].
In the case of `COc1ccc2cc(-c3[nH]ncc3CN3C[C@@H]4CCC[C@H]3C4)ccc2c1`, the Potency is reported as inconclusive: 18.5 µM [inhibitor, partial curve, poor fit].
In the case of `Cc1ccc([N+](=O)[O-])cc1NC(=O)C(Sc1ccccc1)c1ccccc1` (centres undefined), the Potency is reported as inconclusive: 10.4 µM [inhibitor, partial curve, poor fit].
With `COc1ccc(-c2noc(CCCC(=O)NC3CCCCC3)n2)cc1` the Potency was “inactive”.
For `COc1ccc(Cl)cc1NC(=O)Cc1c(F)cccc1Cl`, the Potency was active: 5.86 µM.
With `CCOc1ccccc1NC(=O)CN1c2cccc3cccc(c23)S1(=O)=O` the Potency was inconclusive: 16.5 µM [inhibitor, single point].
In the case of `Oc1ccc(C(O)CNCCCCCCNCC(O)c2ccc(O)c(O)c2)cc1O` (centres undefined), the Potency is reported as active: 12 µM.
With `CC1=CC(C)(C)N(C(=O)CCl)c2cc(C)ccc21` the Potency was inconclusive: 1.31 µM [inhibitor, partial curve, poor fit].
In the case of `O=C(/C=C/c1cc([N+](=O)[O-])ccc1OC(F)F)Nc1cccc([N+](=O)[O-])c1`, the Potency is reported as inconclusive: 13.1 µM [inhibitor, partial curve, poor fit].
With `Cc1ccc2c(c1)-c1c(ssc1=S)C(C)(C)N2C(=O)CN1C(=O)c2ccccc2C1=O` the Potency was inconclusive: 18.5 µM [inhibitor, partial curve, poor fit].
In the case of `O=C(/C=C/c1ccccc1)CC(=O)c1ccccc1O`, the Potency is reported as inconclusive: 18.5 µM [inhibitor, single point].
In the case of `O=C(Nc1ccc(-c2nc3ccccc3o2)cc1)c1ccc2c(c1)OCO2`, the Potency is reported as inconclusive: 0.738 µM [inhibitor, partial curve, poor fit].
With `C=CCC(=O)N1CCCC(CNC(=O)c2ccc(-c3ccccc3)cc2)C1` (centres undefined) the Potency was “inactive”.
For `CCOc1ccc(/C=N/n2c(COc3ccccc3)n[nH]c2=S)cc1OC`, the Potency was inconclusive: 18.5 µM [inhibitor, single point].
For `O=C(Cn1nnc2ccccc21)Nc1ccccc1[N+](=O)[O-]`, the Potency was “inactive”.
In the case of `CC1CCN(C(=O)CNC(=O)CNS(=O)(=O)c2ccccc2)CC1`, the Potency is reported as inconclusive: 16.5 µM [inhibitor, single point].
In the case of `Cc1onc(-c2ccccc2Cl)c1C(=O)N1CCN(Cc2ccc3c(c2)OCO3)CC1`, the Potency is reported as active: 13.1 µM.
For `COC(=O)CCc1sc(NC2CCCCC2)nc1-c1ccc(OC)cc1`, the Potency was inconclusive: 16.5 µM [inhibitor, single point].
With `Cc1ccccc1NC(=O)C(NC1CCCCC1)C(C)C` (centres undefined) the Potency was inconclusive: 1.65 µM [inhibitor, partial curve].
In the case of `CSc1ccc(C(=O)C2CCCN(C(=O)Cn3cnnn3)C2)cc1` (centres undefined), the Potency is reported as inconclusive: 18.5 µM [inhibitor, single point].
In the case of `Fc1cccc(Cl)c1CSc1ccc2nnc(-c3ccccn3)n2n1`, the Potency is reported as “inactive”.
For `C=C1CCC2[C@](C)(CO)[C@H](O)CC[C@@]2(C)[C@@H]1/C=C/C1=CCOC1=O` (some centres undefined), the Potency was “inactive”.
For `O=C(c1c(O)c2ccccc2oc1=O)C1CCCCC1`, the Potency was inconclusive: 9.28 µM [inhibitor, partial curve].
With `CCOC(=O)c1c(NC(=O)CSc2nc3ccccc3c(=O)n2-c2ccccc2)sc(C(C)=O)c1C` the Potency was active: 2.33 µM.
In the case of `S=c1[nH]nc(-c2ccc(Cl)cc2Cl)n1Cc1ccccc1`, the Potency is reported as “inactive”.
In the case of `Cc1ccc(-n2nc3c(c2NC(=O)c2ccc(F)c(F)c2)CS(=O)(=O)C3)cc1`, the Potency is reported as inconclusive: 18.5 µM [inhibitor, single point].
In the case of `O=C(O)CC(c1ccc(F)cc1F)N1Cc2ccccc2C1=O` (centres undefined), the Potency is reported as “inactive”.
In the case of `Cc1cc2[nH]c(=O)c(=O)[nH]c2cc1S(=O)(=O)N1CCN(c2cccc(C)c2C)CC1`, the Potency is reported as active: 4.65 µM.
With `CCCCNC(=S)NCc1ccc2[nH]c(C)cc2c1` the Potency was “inactive”.
In the case of `Cc1cc(Oc2ccc(N)cn2)cc(C)c1Cl`, the Potency is reported as “inactive”.
In the case of `CC(=O)Nc1ccc(NC(=O)c2ccc(CSc3ccccc3)o2)cc1`, the Potency is reported as “inactive”.
For `COCCn1nnnc1SCC(=O)Nc1ccc2c(c1)OCO2`, the Potency was “inactive”.
With `O=C1CCN(CCc2ccccc2)CCN1[C@H](CO)c1ccccc1` the Potency was inconclusive: 4.15 µM [inhibitor, single point].
In the case of `O=C(O)CSc1nc2ccccc2s1`, the Potency is reported as “inactive and inconclusive: 233 nM [inhibitor, partial curve, poor fit]”.
With `CC(c1ccccc1)n1c(SCC(=O)N2CC(=O)Nc3ccccc32)nc2ccccc2c1=O` (centres undefined) the Potency was active: 5.22 µM.
With `O=C(O)CSc1nnc(-c2ccc(Cl)cc2Cl)n1-c1ccc(Cl)cc1` the Potency was “inactive”.
In the case of `COc1ccc(OCC(=O)Nc2ccc(S(=O)(=O)N3CCCCC3)cc2)cc1`, the Potency is reported as “inactive”.
In the case of `COc1ccc(C(C)(C)C)cc1NC(=S)NCCN1CCOCC1`, the Potency is reported as inconclusive: 9.28 µM [inhibitor, partial curve, poor fit].
For `CCCC(=O)C1=C(O)C(C(=O)OC)C(C)(C)CC1=Nc1ccc(Br)cc1` (centres undefined), the Potency was inconclusive: 13.1 µM [inhibitor, partial curve, poor fit].
In the case of `Cc1nonc1CC(=O)N1CCc2c([nH]c3ccccc23)C1c1ccccc1F` (centres undefined), the Potency is reported as inconclusive: 10.4 µM [inhibitor, single point].
With `COc1ccccc1-c1nnc(SCC(=O)Nc2cc(C)on2)o1` the Potency was active: 13.1 µM.
For `CCCOC(=O)C1=C(C)NC2=C(C(=O)C(C(=O)OC)C(C)C2)C1c1ccc(N(C)C)cc1` (centres undefined), the Potency was “inactive”.
For `COc1cc(Cl)c(C)cc1NC(=O)c1ccc(NS(=O)(=O)c2ccc(F)c(F)c2)cc1`, the Potency was inconclusive: 4.15 µM [inhibitor, single point].
With `CC1CC(=S)Nc2ccccc2S1` (centres undefined) the Potency was inconclusive: 14.7 µM [inhibitor, single point].
Potency is the fitted concentration of half-maximal effect.
